We go through 2 compounds from patent US4053635A, “Substituted amides of 3-methyl-4-phenyl-3-butenoic acid, with a high hypolipemizing activity” (Istituto Biochimico Italiano di Loredana Lorenzini S.a.s., priority 1974, dated 1977).

The series is described as follows: hyperlipemia from ethanol (Table V). The format is in vivo, Sprague-Dawley male rat. The following applies: gastric intubation, ethyl alcohol 10% in water 1 week (ethanol alone 16.1). The protocol:
Sprague-Dawley male rat of the average weight of 150 g. ethyl alcohol 10%
in water for 1 week (in parenthesis, the N. of animals). The substances
have been administered by gastric intubation at the dose of 200 and 300
mg/kg/day. In experiments of subchronic toxicity, the diethylamide of […]

On to `CCOC(=O)C(C)(C)Oc1ccc(Cl)cc1` [chlofibrate, ethyl ester of 2-(p-chlorophenoxy)-2-methyl propanoic acid, reference compound], for which, for the setting “200 mg/kg/day”, the “g. alcohol drunk per rat” value is given as 20 g.

`CCN(CC)C(=O)C/C(C)=C/c1ccccc1` [IIId, Diethylamide of 3-methyl-4-phenyl-3-butenoic acid]: the “g. alcohol drunk per rat” value runs as follows: (200 mg/kg/day) 14.8 g; (300 mg/kg/day) 13.2 g.
